Laboratory results reported in publication PMC6960150.
Results are given in words; binding and its absence hold for the method and conditions named. Binding seen in cells or lysates may run through a third protein. Some binding calls cover weakened binding; strength is not graded here.

Amino acid sequences for entries named in this document (tags omitted).
UniProt Q3ZCC3: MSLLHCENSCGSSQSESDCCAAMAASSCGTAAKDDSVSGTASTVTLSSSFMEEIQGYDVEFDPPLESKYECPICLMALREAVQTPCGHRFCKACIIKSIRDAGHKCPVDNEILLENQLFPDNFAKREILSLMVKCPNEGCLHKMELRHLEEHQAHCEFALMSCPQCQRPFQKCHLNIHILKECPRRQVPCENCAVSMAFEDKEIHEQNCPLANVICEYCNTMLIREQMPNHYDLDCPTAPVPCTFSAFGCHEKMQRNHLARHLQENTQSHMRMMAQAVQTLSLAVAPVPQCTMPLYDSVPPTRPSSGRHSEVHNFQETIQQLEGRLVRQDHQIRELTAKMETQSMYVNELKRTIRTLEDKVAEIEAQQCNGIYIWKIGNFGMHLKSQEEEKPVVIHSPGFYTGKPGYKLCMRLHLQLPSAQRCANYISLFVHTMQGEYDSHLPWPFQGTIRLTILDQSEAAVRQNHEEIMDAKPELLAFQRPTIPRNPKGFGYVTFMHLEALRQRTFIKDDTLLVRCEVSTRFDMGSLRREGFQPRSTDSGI
UniProt P29128: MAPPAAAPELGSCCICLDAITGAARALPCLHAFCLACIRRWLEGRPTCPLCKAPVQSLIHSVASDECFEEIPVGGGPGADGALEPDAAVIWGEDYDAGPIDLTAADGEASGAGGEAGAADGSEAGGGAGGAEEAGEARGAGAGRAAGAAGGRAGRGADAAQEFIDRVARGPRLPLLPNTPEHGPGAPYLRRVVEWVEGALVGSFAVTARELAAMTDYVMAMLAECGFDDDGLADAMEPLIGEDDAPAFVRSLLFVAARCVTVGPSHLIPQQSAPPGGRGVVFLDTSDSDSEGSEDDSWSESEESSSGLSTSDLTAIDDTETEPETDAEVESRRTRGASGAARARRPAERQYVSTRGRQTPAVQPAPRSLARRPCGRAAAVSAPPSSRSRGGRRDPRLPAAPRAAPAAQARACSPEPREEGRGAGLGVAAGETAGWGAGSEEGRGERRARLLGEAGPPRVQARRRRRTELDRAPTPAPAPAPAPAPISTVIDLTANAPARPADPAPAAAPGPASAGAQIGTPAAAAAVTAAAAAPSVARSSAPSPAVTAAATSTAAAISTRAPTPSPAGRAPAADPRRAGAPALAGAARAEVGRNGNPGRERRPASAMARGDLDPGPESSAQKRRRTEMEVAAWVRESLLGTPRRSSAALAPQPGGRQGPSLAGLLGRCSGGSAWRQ

Assays:
[1] = target: HA-tagged bovine TRAF6 (tumor necrosis factor receptor-associated factor 6) (bovine) (UniProt Q3ZCC3); test: co-IP; reverse co-IP: HEK293T co-transfected, lysed 36 h after transfection; lysate with anti-HA magnetic beads 2 h at room temperature; western blot
[2] = target: Flag-tagged wild type BICP0 (infected cell protein 0 of bovine herpesvirus 1) (bovine herpesvirus 1 (BHV-1)) (UniProt P29128); test: co-IP; HEK293T co-transfected, lysed 36 h after transfection; lysate with anti-Flag magnetic beads 2 h at room temperature; blot with anti-HA

**Q.** Which binding [1] does the source give for “Flag-tagged wild type BICP0 (infected cell protein 0 of bovine herpesvirus 1) (from UniProt P29128 1-676)” here?
**A.** The binding was “binds”.

**Q.** How did the binding [2] turn out when “HA-tagged bovine TRAF6 (tumor necrosis factor receptor-associated factor 6) (from UniProt Q3ZCC3 1-542)” was run?
**A.** The binding was “binds”.
